Assay results reported in patent publication US12521402B2, “Biomarker and drug combinations for heart failure prediction” (Endothelium Scanning Nanotechnology Limited, priority 2022, dated 2026).

Experiment: Saliva proteomics: biomarker quantification by mass spectrometry SWATH in participants at risk of heart failure vs controls
Design: species or system human
Conditions: for Control vs Risk: differential expression (fold) control vs 'at risk', printed as larger/smaller average whatever the direction; for AtRisk average / Control average: saliva, mass spectrometry SWATH quantification; for AtRisk average: 'at risk' of heart failure group mean; for Control average: control group mean

B1: PLCG2 (protein, UniProt P16885 1-1265, looked up)
1-phosphatidylinositol …: MSTTVNVDSLAEYEKSQIKRALELGTVMTVFSFRKSTPERRTVQVIMETRQVAWSKTADKIEGFLDIMEIKEIRPGKNSKDFERAKAVRQKEDCCFTILYGTQFVLSTLSLAADSKEDAVNWLSGLKILHQEAMNASTPTIIESWLRKQIYSVDQTRRNSISLRELKTILPLINFKVSSAKFLKDKFVEIGAHKDELSFEQFHLFYKKLMFEQQKSILDEFKKDSSVFILGNTDRPDASAVYLHDFQRFLIHEQQEHWAQDLNKVRERMTKFIDDTMRETAEPFLFVDEFLTYLFSRENSIWDEKYDAVDMQDMNNPLSHYWISSSHNTYLTGDQLRSESSPEAYIRCLRMGCRCIELDCWDGPDGKPVIYHGWTRTTKIKFDDVVQAIKDHAFVTSSFPVILSIEEHCSVEQQRHMAKAFKEVFGDLLLTKPTEASADQLPSPSQLREKIIIKHKKLGPRGDVDVNMEDKKDEHKQQGELYMWDSIDQKWTRHYCAIADAKLSFSDDIEQTMEEEVPQDIPPTELHFGEKWFHKKVEKRTSAEKLLQEYCMETGGKDGTFLVRESETFPNDYTLSFWRSGRVQHCRIRSTMEGGTLKYYLTDNLTFSSIYALIQHYRETHLRCAEFELRLTDPVPNPNPHESKPWYYDSLSRGEAEDMLMRIPRDGAFLIRKREGSDSYAITFRARGKVKHCRINRDGRHFVLGTSAYFESLVELVSYYEKHSLYRKMRLRYPVTPELLERYNMERDINSLYDVSRMYVDPSEINPSMPQRTVKALYDYKAKRSDELSFCRGALIHNVSKEPGGWWKGDYGTRIQQYFPSNYVEDISTADFEELEKQIIEDNPLGSLCRGILDLNTYNVVKAPQGKNQKSFVFILEPKQQGDPPVEFATDRVEELFEWFQSIREITWKIDTKENNMKYWEKNQSIAIELSDLVVYCKPTSKTKDNLENPDFREIRSFVETKADSIIRQKPVDLLKYNQKGLTRVYPKGQRVDSSNYDPFRLWLCGSQMVALNFQTADKYMQMNHALFSLNGRTGYVLQPESMRTEKYDPMPPESQRKILMTLTVKVLGARHLPKLGRSIACPFVEVEICGAEYDNNKFKTTVVNDNGLSPIWAPTQEKVTFEIYDPNLAFLRFVVYEEDMFSDPNFLAHATYPIKAVKSGFRSVPLKNGYSEDIELASLLVFCEMRPVLESEEELYSSCRQLRRRQEELNNQLFLYDTHQNLRNANRDALVKEFSVNENQLQLYQEKCNKRLREKRVSNSKFYS
  Control vs Risk: 3.20
  AtRisk average: 171,703 ng/ml
  Control average: 53,680 ng/ml

B2: S10AG (protein, UniProt Q96FQ6 1-103, looked up)
Protein S100-A16: MSDCYTELEKAVIVLVENFYKYVSKYSLVKNKISKSSFREMLQKELNHMLSDTGNRKAADKLIQNLDANHDGRISFDEYWTLIGGITGPIAKLIHEQEQQSSS
  Control vs Risk: 3.18
  AtRisk average: 203,832 ng/ml
  Control average: 648,580 ng/ml

B3: LV319 (protein, UniProt P01714 21-112, looked up)
Immunoglobulin lambda …: SELTQDPAVSVALGQTVRITCQGDSLRSYYASWYQQKPGQAPVLVIYGKNNRPSGIPDRFSGSSSGNTASLTITGAQAEDEADYYCNSRDSS
  Control vs Risk: 3.12
  AtRisk average: 462,857 ng/ml
  Control average: 1,442,287 ng/ml

B4: ABCB9 (protein, UniProt Q9NP78 1-766, looked up)
ABC-type oligopeptide …: MRLWKAVVVTLAFMSVDICVTTAIYVFSHLDRSLLEDIRHFNIFDSVLDLWAACLYRSCLLLGATIGVAKNSALGPRRLRASWLVITLVCLFVGIYAMVKLLLFSEVRRPIRDPWFWALFVWTYISLGASFLLWWLLSTVRPGTQALEPGAATEAEGFPGSGRPPPEQASGATLQKLLSYTKPDVAFLVAASFFLIVAALGETFLPYYTGRAIDGIVIQKSMDQFSTAVVIVCLLAIGSSFAAGIRGGIFTLIFARLNIRLRNCLFRSLVSQETSFFDENRTGDLISRLTSDTTMVSDLVSQNINVFLRNTVKVTGVVVFMFSLSWQLSLVTFMGFPIIMMVSNIYGKYYKRLSKEVQNALARASNTAEETISAMKTVRSFANEEEEAEVYLRKLQQVYKLNRKEAAAYMYYVWGSGLTLLVVQVSILYYGGHLVISGQMTSGNLIAFIIYEFVLGDCMESVGSVYSGLMQGVGAAEKVFEFIDRQPTMVHDGSLAPDHLEGRVDFENVTFTYRTRPHTQVLQNVSFSLSPGKVTALVGPSGSGKSSCVNILENFYPLEGGRVLLDGKPISAYDHKYLHRVISLVSQEPVLFARSITDNISYGLPTVPFEMVVEAAQKANAHGFIMELQDGYSTETGEKGAQLSGGQKQRVAMARALVRNPPVLILDEATSALDAESEYLIQQAIHGNLQKHTVLIIAHRLSTVEHAHLIVVLDKGRVVQQGTHQQLLAQGGLYAKLVQRQMLGLQPAADFTAGHNEPVANGSHKA
  Control vs Risk: 11.14
  AtRisk average: 2,886,652 ng/ml
  Control average: 259,205 ng/ml

B5: PAK2 (protein, UniProt Q13177 2-524, looked up)
Serine/threonine-protein …: SDNGELEDKPPAPPVRMSSTIFSTGGKDPLSANHSLKPLPSVPEEKKPRHKIISIFSGTEKGSKKKEKERPEISPPSDFEHTIHVGFDAVTGEFTGMPEQWARLLQTSNITKLEQKKNPQAVLDVLKFYDSNTVKQKYLSFTPPEKDGFPSGTPALNAKGTEAPAVVTEEEDDDEETAPPVIAPRPDHTKSIYTRSVIDPVPAPVGDSHVDGAAKSLDKQKKKTKMTDEEIMEKLRTIVSIGDPKKKYTRYEKIGQGASGTVFTATDVALGQEVAIKQINLQKQPKKELIINEILVMKELKNPNIVNFLDSYLVGDELFVVMEYLAGGSLTDVVTETCMDEAQIAAVCRECLQALEFLHANQVIHRDIKSDNVLLGMEGSVKLTDFGFCAQITPEQSKRSTMVGTPYWMAPEVVTRKAYGPKVDIWSLGIMAIEMVEGEPPYLNENPLRALYLIATNGTPELQNPEKLSPIFRDFLNRCLEMDVEKRGSAKELLQHPFLKLAKPLSSLTPLIMAAKEAMKSNR
  Control vs Risk: 3.09
  AtRisk average: 47,302 ng/ml
  Control average: 146,112 ng/ml

B6: SRSF8 (protein, UniProt Q9BRL6 2-282, looked up)
Serine/arginine-rich splicing …: SCGRPPPDVDGMITLKVDNLTYRTSPDSLRRVFEKYGRVGDVYIPREPHTKAPRGFAFVRFHDRRDAQDAEAAMDGAELDGRELRVQVARYGRRDLPRSRQGEPRGRSRGGGYGRRSRSYGRRSRSPRRRHRSRSRGPSCSRSRSRSRYRGSRYSRSPYSRSPYSRSRYSRSPYSRSRYRESRYGGSHYSSSGYSNSRYSRYHSSRSHSKSGSSTSSRSASTSKSSSARRSKSSSVSRSRSRSRSSSMTRSPPRVSKRKSKSRSRSKRPPKSPEEEGQMSS
  Control vs Risk: 2.75
  AtRisk average: 141,319 ng/ml
  Control average: 51,306 ng/ml

B7: CRIS3 (protein, UniProt P54108 21-245, looked up)
Cysteine-rich secretory …: NEDKDPAFTALLTTQTQVQREIVNKHNELRRAVSPPARNMLKMEWNKEAAANAQKWANQCNYRHSNPKDRMTSLKCGENLYMSSASSSWSQAIQSWFDEYNDFDFGVGPKTPNAVVGHYTQVVWYSSYLVGCGNAYCPNQKVLKYYYVCQYCPAGNWANRLYVPYEQGAPCASCPDNCDDGLCTNGCKYEDLYSNCKSLKLTLTCKHQLVRDSCKASCNCSNSIY
  Control vs Risk: 2.74
  AtRisk average: 13,156,769 ng/ml
  Control average: 35,993,306 ng/ml

B8: HPRT (protein, UniProt P00492 2-218, looked up)
Hypoxanthine-guanine …: ATRSPGVVISDDEPGYDLDLFCIPNHYAEDLERVFIPHGLIMDRTERLARDVMKEMGGHHIVALCVLKGGYKFFADLLDYIKALNRNSDRSIPMTVDFIRLKSYCNDQSTGDIKVIGGDDLSTLTGKNVLIVEDIIDTGKTMQTLLSLVRQYNPKMVKVASLLVKRTPRSVGYKPDFVGFEIPDKFVVGYALDYNEYFRDLNHVCVISETGKAKYKA
  Control vs Risk: 2.74
  AtRisk average: 118,436 ng/ml
  Control average: 323,998 ng/ml

B9: SLPI (protein, UniProt P03973 26-132, looked up)
Antileukoproteinase: SGKSFKAGVCPPKKSAQCLRYKKPECQSDWQCPGKKRCCPDTCGIKCLDPVDTPNPTRRKPGKCPVTYGQCLMLNPPNFCEMDGQCKRDLKCCMGMCGKSCVSPVKA
  Control vs Risk: 10.46
  AtRisk average: 448,243 ng/ml
  Control average: 4,688,764 ng/ml

B10: I36RA (protein, UniProt Q9UBH0 2-155, looked up)
Interleukin-36 receptor …: VLSGALCFRMKDSALKVLYLHNNQLLAGGLHAGKVIKGEEISVVPNRWLDASLSPVILGVQGGSQCLSCGVGQEPTLTLEPVNIMELYLGAKESKSFTFYRRDMGLTSSFESAAYPGWFLCTVPEADQPVRLTQLPENGGWNAPITDFYFQQCD
  Control vs Risk: 2.73
  AtRisk average: 260,231 ng/ml
  Control average: 95,212 ng/ml

B11: FCL (protein, UniProt Q13630 1-321, looked up)
GDP-L-fucose synthase: MGEPQGSMRILVTGGSGLVGKAIQKVVADGAGLPGEDWVFVSSKDADLTDTAQTRALFEKVQPTHVIHLAAMVGGLFRNIKYNLDFWRKNVHMNDNVLHSAFEVGARKVVSCLSTCIFPDKTTYPIDETMIHNGPPHNSNFGYSYAKRMIDVQNRAYFQQYGCTFTAVIPTNVFGPHDNFNIEDGHVLPGLIHKVHLAKSSGSALTVWGTGNPRRQFIYSLDLAQLFIWVLREYNEVEPIILSVGEEDEVSIKEAAEAVVEAMDFHGEVTFDTTKSDGQFKKTASNSKLRTYLPDFRFTPFKQAVKETCAWFTDNYEQARK
  Control vs Risk: 2.70
  AtRisk average: 100,529 ng/ml
  Control average: 37,272 ng/ml

B12: MGP (protein, UniProt P08493 20-96, looked up)
Matrix Gla protein: YESHESMESYELNPFINRRNANTFISPQQRWRAKVQERIRERSKPVHELNREACDDYRLCERYAMVYGYNAAYNRYF
  Control vs Risk: 2.60
  AtRisk average: 799,600 ng/ml
  Control average: 307,281 ng/ml

B13: ECI1 (protein, UniProt P42126 42-302, looked up)
Enoyl-CoA delta isomerase 1, …: FGSQRVLVEPDAGAGVAVMKFKNPPVNSLSLEFLTELVISLEKLENDKSFRGVILTSDRPGVFSAGLDLTEMCGRSPAHYAGYWKAVQELWLRLYQSNLVLVSAINGACPAGGCLVALTCDYRILADNPRYCIGLNETQLGIIAPFWLKDTLENTIGHRAAERALQLGLLFPPAEALQVGIVDQVVPEEQVQSTALSAIAQWMAIPDHARQLTKAMMRKATASRLVTQRDADVQNFVSFISKDSIQKSLQMYLERLKEEKG
  Control vs Risk: 2.55
  AtRisk average: 46,141 ng/ml
  Control average: 117,742 ng/ml

B14: RASF2 (protein, UniProt P50749 1-326, looked up)
Ras association …: MDYSHQTSLVPCGQDKYISKNELLLHLKTYNLYYEGQNLQLRHREEEDEFIVEGLLNISWGLRRPIRLQMQDDNERIRPPPSSSSWHSGCNLGAQGTTLKPLTVPKVQISEVDAPPEGDQMPSSTDSRGLKPLQEDTPQLMRTRSDVGVRRRGNVRTPSDQRRIRRHRFSINGHFYNHKTSVFTPAYGSVTNVRINSTMTTPQVLKLLLNKFKIENSAEEFALYVVHTSGEKQKLKATDYPLIARILQGPCEQISKVFLMEKDQVEEVTYDVAQYIKFEMPVLKSFIQKLQEEEDREVKKLMRKYTVLRLMIRQRLEEIAETPATI
  Control vs Risk: 2.52
  AtRisk average: 64,961 ng/ml
  Control average: 25,756 ng/ml
